In paper PMC10534827 (Pharmaceuticals, 2023):

Columns and labels:
Neuro-2a cells = test: MTT cytotoxicity, Neuro-2a; assay type: cell-based, murine; conditions: Mus musculus, N2a, 72 h exposure
SH-SY5Y cells = test: MTT cytotoxicity, SH-SY5Y; assay type: cell-based; conditions: Homo sapiens, 72 h exposure
[1] = Lipid peroxidation in linoleic acid system, FTC method; conditions: 10 mM compound, 500 nm
Protocol: During lipid peroxidation, peroxides were formed and oxidized Fe^2+ to Fe^3 +. The Fe^3+ ions formed a complex with SCN^–, with an absorption maximum of 500 nm. Thus, a high absorbance was an indication of high peroxide formation during the emulsion incubation. The presence of compounds with antioxidant properties in the mixture decreased the linoleic acid oxidation and reduced absorption, respectively. […] […].
The antioxidant activity of studied compounds against lipid peroxidation was measured through ammonium thiocyanate assay as described by Takao et al. with some modifications. The reaction solution, containing 200 μL of the compound (10 mM) in MeOH, 200 μL of linoleic acid emulsions (25 mg/mL in 99% ethanol), and 400 μL of 50 mM phosphate buffer (pH 7.6) was incubated in the dark at room temperature. A 10 μL aliquot of the reaction solution was then added to 200 μL of 70% (v/v) ethanol and 10 μL of 30% (w/v) ammonium thiocyanate. Precisely 3 min after the addition of 10 μL of 20 mM ferrous chloride in 3.5% (v/v) hydrochloric acid to the reaction mixture, the absorbance of the resulting red color was measured at 500 nm. Aliquots were assayed every 24 h until the day after the absorbance of the control solution (without compound) reached maximum value. BHT (10 mM) was used as positive control.

CCL-1 cells = test: MTT cytotoxicity, CCL-1 normal fibroblasts; assay type: cell-based, murine; conditions: Mus musculus, Fibroblast, 72 h exposure
[2] = ABTS radical scavenging assay; conditions: 734 nm after 5 min

COc1cc2c(cc1OC)C(=O)C(CC1CCN(Cc3ccccc3)CC1)C2 (stereo not drawn) [Donepezil, 1-Benzyl-4-[(5,6-dimethoxy-1-indanon-2-yl)methyl]piperidine, reference compound]
IC50 (Neuro-2a cells): 248 ± 15.4 µM | IC50 (SH-SY5Y cells): 79.3 ± 6.2 µM | Absorbance Day 1 ([1]; Day 1): 0.79 ± 0.08 | Absorbance Day 2 ([1]; Day 2): 0.82 ± 0.08 | Absorbance Day 3 ([1]; Day 3): 0.84 ± 0.04 | Absorbance Day 4 ([1]; Day 4): 1.19 ± 0.24 | Absorbance Day 5 ([1]; Day 5): 2.00 ± 0.18 | IC50 (CCL-1 cells): 52 ± 5.3 µM | IC50 [2]: > 5000 µM
